Data taken from ChEMBL document CHEMBL3988442, “University of Dundee, Small-Polar-MMV Screening Library” (2021).

Results are given as percent effect.
The record does not define 0% and 100%; most values in the screen are far below 50% and negative numbers occur (in some assays of this library far below -100).
This is an unselected part of the compounds tested.

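Whole-cell assay for inhibitors of Mycobacterium tuberculosis growth, labelled Cornell in the record; the read-out is not stated. The concentration is filed as 10 mM, unlikely as a test dose, so the dose is not known. Higher means stronger inhibition (inferred from two other growth screens of the library). Of about 53,000 compounds tested this way, about 900 (1.7%) reached 50% or more in at least one test.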

SMILES: Cc1cnc(N2CCC3(CC2)CC3CN(C)Cc2cccnc2)nc1.O=C(O)C(F)(F)F.O=C(O)C(F)(F)F (configuration not stated)
effect: 8.168

SMILES: Clc1cc(N2CCN(C3CCOCC3)CC2)nc2[nH]ccc12
effect: -30.2

SMILES: Cc1nn(CC(=O)N2CCN(c3cnccn3)CC2)c(C)c1Cl
effect: -63.68

SMILES: O=S(=O)(NCc1ccccc1)N(Cc1ccccn1)CC1CCCO1 (configuration not stated)
effect: -11.84

SMILES: Cc1nnc(CN2CCCC2c2ccc(C(C)(C)C)cc2)o1 (configuration not stated)
effect: -11.62

SMILES: [H][C@]12CCN(C(=O)NC(C)C)C[C@@]1([H])OCCN(S(C)(=O)=O)C2
effect: -8.13

SMILES: O=C(NCC(O)c1ccccc1C(F)(F)F)c1cccnc1 (configuration not stated)
effect: -7.638

SMILES: Cc1nc(C)n(CC2CN(CC(=O)Nc3nccs3)CCO2)n1 (configuration not stated)
effect: -16.01

SMILES: Cc1cc(F)ccc1NC(=O)Cn1cc(C(=O)O)ccc1=O
effect: -28.01

SMILES: Cc1noc(C)c1C(=O)NCC(c1ccc(F)cc1)N(C)C (configuration not stated)
effect: 10.59

SMILES: CCC(CO)N(Cc1ccncc1)Cc1c[nH]nc1-c1ccc(F)cc1 (configuration not stated)
effect: 29.52

SMILES: Cn1nccc1C(=O)N1CCC(c2ncc(Cl)cc2S(C)(=O)=O)CC1
effect: -37.81

SMILES: CO[C@H]1CCN(c2ncccn2)[C@H]1Cc1ccccc1
effect: 5.552

SMILES: O=S1(=O)N=C(SCc2ccc(Cl)cc2)Nc2ccc(F)cc21
effect: 1.236

SMILES: Cc1ccnc(NC(=O)c2ccc(Cl)o2)c1
effect: 16.38

SMILES: Cc1cnn(CC(=O)Nc2cc(-n3nnnc3C3CC3)ccc2F)c1
effect: 18.98

SMILES: Cc1cc(C)nc(N2CCC(c3noc(C)n3)CC2)n1
effect: -1.548

SMILES: CCOCC1COCCC12CCN(C(=O)C1=CCCCC1)CC2 (configuration not stated)
effect: 16.95

SMILES: N#Cc1ccc(C(=O)NCC2(N3CCOCC3)CCCC2)nc1
effect: -16.35

SMILES: CCc1ccc(C(=O)N2CCCC2c2nnc3n2CCCCC3)o1 (configuration not stated)
effect: -12.14

SMILES: N#CCCN(Cc1cccnc1)C(=O)c1cc(Cl)c[nH]1
effect: -16.03

SMILES: Cc1nccc(C2CN(S(=O)(=O)N(C)C)C2)n1
effect: 4.09

SMILES: Cc1ccccc1-c1cncc(C2CCN(C(=O)CN(C)C)CC2)n1
effect: -3.494

SMILES: CN(C)[C@@H]1CCN(c2ncccn2)[C@H]1Cc1ccncc1.O=C(O)C(F)(F)F.O=C(O)C(F)(F)F
effect: 16.95

SMILES: N#Cc1ccc(C(=O)N2CCC3(CC2)C(=O)Nc2ccccc23)cn1
effect: 23.31

SMILES: O=C(CCOCc1ccccc1)N1CCCC1c1noc(C2CC2)n1 (configuration not stated)
effect: 14.77

SMILES: Cc1cc(CN(C)C(=O)c2ccc(N(C)C)nc2)no1
effect: -27.88

SMILES: CC(C)N(CCO)C(=O)C1CCC(=O)N(CCc2cccc(F)c2)C1 (configuration not stated)
effect: -0.3805

SMILES: CC(=O)NCC1CCN(C(=O)c2csc(-c3ccc(C)cc3C)n2)CC1
effect: 26.75

SMILES: [H][C@@]12CCN(C(=O)c3cccs3)C[C@@]1([H])O[C@H](c1nnc(C3CC3)o1)C2
effect: -4.12

SMILES: Cc1cc(C(F)(F)F)nc(CNC(=O)CCn2cccn2)n1
effect: -23.48

SMILES: CC(C)NC(=O)c1cc(Br)cc(S(=O)(=O)N2CCOCC2)c1F
effect: 2.095

SMILES: O=C(O)C(F)(F)F.O=C(O)C(F)(F)F.[H][C@@]12COC[C@]1([H])[C@@H](OCc1cccnc1)CN2Cc1ccco1
effect: -2.132

SMILES: NCc1csc(CCc2ccccc2)n1
effect: 38.37